Results are given in words; binding and its absence hold for the method and conditions named. In cells and extracts the contact can be indirect. Some binding calls cover weakened binding; strength is not graded here.
Columns and labels:
[1] = target: Solute carrier family 3 member 2 (SLC3A2), endogenous (human (endogenous in the paper's human cell lines; the line used for the co-IP is not stated)) (UniProt P08195); assay: co-IP; co-immunoprecipitation of exogenous or endogenous MIF and SLC3A2; cells, antibodies and buffers not described
[2] = target: Solute carrier family 3 member 2 (SLC3A2), exogenous (UniProt P08195); assay: as above

Amino acid sequences for entries named in this document (tags omitted). Residues count along the entry.
UniProt P08195, residues 102-630: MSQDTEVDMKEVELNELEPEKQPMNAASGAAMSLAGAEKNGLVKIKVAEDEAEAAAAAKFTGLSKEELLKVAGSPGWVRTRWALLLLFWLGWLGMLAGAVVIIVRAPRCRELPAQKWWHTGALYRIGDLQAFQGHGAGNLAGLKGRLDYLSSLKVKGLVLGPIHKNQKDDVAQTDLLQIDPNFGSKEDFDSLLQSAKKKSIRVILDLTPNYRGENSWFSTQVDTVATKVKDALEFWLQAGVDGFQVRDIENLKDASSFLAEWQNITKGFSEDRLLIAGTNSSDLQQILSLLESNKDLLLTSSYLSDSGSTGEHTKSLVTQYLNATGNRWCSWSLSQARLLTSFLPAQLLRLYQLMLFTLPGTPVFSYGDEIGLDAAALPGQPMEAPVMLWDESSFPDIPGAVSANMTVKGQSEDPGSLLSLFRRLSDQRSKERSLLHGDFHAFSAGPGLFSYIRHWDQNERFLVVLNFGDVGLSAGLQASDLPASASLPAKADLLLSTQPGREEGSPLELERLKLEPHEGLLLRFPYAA

Row | Binder | binding [1] | binding [2]
1 | Macrophage migration inhibitory factor (MIF), endogenous (protein, UniProt P14174 1-115) MPMFIVNTNVPRASVPDGFLSELTQQLAQATGKPPQYIAVHVVPDQLMAFGGSSEPCALCSLHSIGKIGGAQNRSYSKLLCGLLAERLRISPDRVYINYYDMNAANVGWNNSTFA | binds | –
2 | Macrophage migration inhibitory factor (MIF), exogenous (protein, UniProt P14174 1-115) MPMFIVNTNVPRASVPDGFLSELTQQLAQATGKPPQYIAVHVVPDQLMAFGGSSEPCALCSLHSIGKIGGAQNRSYSKLLCGLLAERLRISPDRVYINYYDMNAANVGWNNSTFA | – | binds
